{"source": "paper PMC6301270", "about": "(MedChemComm, 2018)", "key": {"[1]": {"test_system": "T.b. brucei (strain 427) bloodstream form parasites", "test": "Trypanosoma brucei assay, dose–response (this study)", "type": "cell-based"}, "HeLa cells": {"test_system": "HeLa cells", "test": "HeLa cell assay (cytotoxicity)", "type": "cell-based", "details": "Homo sapiens, Table 2, 48 hours, resazurin", "experimental": "HeLa cells were cultured in DMEM medium supplemented with 10% fetal bovine serum and antibiotics (penicillin/streptomycin/amphotericin B) at 37 °C in a 5% CO2 incubator. On the day prior to compound addition, cells were plated in 96-well plates at 2 × 10^4 cells per well. Compounds were added to the cells in 3-fold serial dilutions and incubation at 37 °C in a 5% CO2 incubator continued for 48 hours. Twenty μl resazurin reagent (0.5 mM resazurin in phosphate-buffered saline) was added to each well and, after a 2-hour incubation, fluorescence (Exc560/Em590) was measured in a plate reader. Percentage cell viability in drug-treated wells was calculated from the fluorescent readings obtained relative to those in wells containing control, untreated cells. Plots of % cell viability vs. log[compound] were used to determine IC50 values by non-linear regression analysis using GraphPad Prism."}}, "data": [{"smiles": "CN1CCCC1CCO[C@](C)(c1ccccc1)c1ccc(Cl)cc1", "note": "(stereo partly drawn) [Compound 62, ClC1=CC=C([C@@](C)(C2=CC=CC=C2)OCCC3N(C)CCC3)C=C1]", "values": [{"measurement": "IC50", "setting": "[1]; Trypanosoma brucei, Table 2, remaining Pathogen Box, 48 hours at 37 °C, resazurin", "result": 3.5, "unit": "µM"}, {"measurement": "Selectivity index", "setting": "[1]; calculated as IC50(HeLa)/IC50(T.bb)", "result": "> 7.1"}, {"measurement": "IC50", "setting": "HeLa cells", "result": "> 25", "unit": "µM"}]}]}
